# Experimental data as given in PubChem BioAssay AID1745846 (National Center for Advancing Translational Sciences (NCATS), 2022).
# In all, about 1,400 compounds went through this assay and about 30 (2%) were called active. Not shown: some 15% with an inconclusive outcome. Calls come from the whole dose curve; as a rule, active = well fitted inhibition curve with a large enough effect; inconclusive = small, poorly fitted or top-dose-only effect; inactive = flat fitted curve, though single readings scatter. This is one part of the list.
# Test: Firefly Luciferase Counterscreen for Inhibitors of ATXN expression
# Details: luminescence; series mostly up to 57.5 µM; activity change, negative = inhibition: at the top concentration
# Summary of the method: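 Recombinant firefly luciferase at 10 nM final in 50 mM Tris pH 7.5, 10 mM MgCl2, 0.05% BSA, 0.01% Tween20 with substrate; compounds up to 57 uM final, 10 min room temperature, end-point luminescence. Buffer-only wells define 100% inhibition.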
# % is set by controls: 0 for no effect and ±100 for the full control effect; potency is the fitted concentration of half-maximal effect.
SMILES,"activity change, negative = inhibition",Potency
COc1ccc(/C=C2\CN(Cc3ccccc3)C/C(=C\c3ccc(OC)c(O)c3)C2=O)cc1O,inactive: -1.84%,
CCn1c(/C=C/c2ccc([N+](=O)[O-])o2)nc2ccccc2c1=O,inactive: 1.83%,
Cc1cccc(N=C2NN=C(c3c(C)[nH]c4ccccc34)CS2)c1,inactive: -0.128%,
CCc1ccc(CNC(=O)c2cc3c(C)nc4ccccc4c3o2)cc1,inactive: -6.09%,
Clc1ccc2c(NCc3ccccc3)ccnc2c1,inactive: -5.63%,
O=c1c(Cc2ccccc2)c(O)nc2n1CCS2,inactive: -5.28%,
CCOC(=O)N1CCC(c2cc(=O)n3[nH]c(C)c(-c4ccc(F)cc4)c3n2)CC1,inactive: -8.39%,
COc1ccccc1OCCN1CSC(=S)N(C)C1,inactive: -3.93%,
CN(C)CCCNc1nc2cc(-c3cccc(Cl)c3)sc2c(=O)n1C,inactive: 0.253%,
CC(C)(C)N(Cc1ccc2c(c1)OCO2)C(=O)/C=C\S(=O)c1ccccc1 (configuration not stated),inactive: -1.1%,
C/C(=N\NC(=O)CN(c1ccccc1)S(C)(=O)=O)c1ccccc1O,inactive: -2.27%,
Cc1ccc(C)c(CN2CCC(CNC(=O)Nc3ccc(C)c(C)c3)CC2)c1,inactive: 3.77%,
N#Cc1c(Oc2ccc3ccccc3c2)sc(C(=O)c2ccccc2)c1N,inactive: 4.85%,
COc1cc(-c2ccc3sc(-c4ccsc4)c(C#CCO)c3c2)cc(OC)c1OC,inactive: 0.724%,
Cc1ccc2[nH]c(=O)c(CN(CCCN(C)C)C(=O)Nc3cccc(Cl)c3)cc2c1,inactive: -2.94%,
Oc1c(C(Nc2cccc(C(F)(F)F)c2)c2cccnc2)ccc2cccnc12 (configuration not stated),inactive: -4.6%,
O=C(Nc1ccc(F)cc1)c1sccc1SCc1cccc(C(F)(F)F)c1,inactive: -2.62%,
CCCc1nc(C)cc(N2CCN(c3ccccc3)CC2)n1,inactive: 4.02%,
CCCNC(=O)c1ccc2c(=O)c(O)c(-c3cccc(Br)c3)[nH]c2c1,inactive: -1.91%,
Nc1c(C(=O)NCCN2CCOCC2)c2nc3ccccc3nc2n1CCc1ccccc1F,inactive: 0.75%,
COc1cccc(CC2(CO)CCCN(Cc3[nH]c4ccc(C)cc4c3C)C2)c1 (configuration not stated),inactive: -1.09%,
NS(=O)(=O)c1ccc(N2N=C(c3ccccc3)CC2c2cccc(Cl)c2)cc1 (configuration not stated),inactive: -7.87%,
CS(=O)(=O)Nc1cccc(NC(=O)c2cccc3c(-c4cccc(C(N)=O)c4)coc23)c1,,active: 14.1 µM
COc1ccc2nc(C)cc(SCC(=O)N/N=C/c3ccc(O)cc3O)c2c1,inactive: 0.544%,
Cn1cccc1/C=N/N1CCN(Cc2ccccc2Cl)CC1,inactive: -4.65%,
CCN1CCN(Cc2ccc(NC(=O)c3ccc(C)c(NC(=O)c4nccnc4N)c3)cc2C(F)(F)F)CC1,inactive: -14.6%,

SMILES,"activity change, negative = inhibition",Potency
N#CC1=C(N)N2C(=C(C#N)C1c1cccc(Br)c1)Nc1ccccc12 (configuration not stated),inactive: -1.52%,
O=C(Nc1cccc(C(F)(F)F)c1)N1CCC(c2nc(-c3ccc(F)cc3)no2)CC1,inactive: -1.53%,
CCCC(=O)NC(c1ccc(OC)cc1)c1c(O)ccc2ccccc12 (configuration not stated),inactive: -0.474%,
CN(C)c1ccc2c(c1)OC(N)=C(C#N)C2c1cccc(F)c1 (configuration not stated),inactive: -5.56%,
CCC(O)(CC)C(=O)N/N=C/c1cc(Br)cc(Br)c1O,inactive: -19.5%,
c1ccc(-c2sc3ccccc3c2-c2ccc(OCCN3CCCC3)cc2)cc1,inactive: 0.532%,
O=c1[nH]c(=O)n(C2C[C@H](O)[C@@H](CO)O2)cc1C(F)(F)F (some centres not stated),inactive: -1.72%,
CC(=O)c1ccc(NC(=O)COC(=O)c2c3c(nc4ccccc24)/C(=C\c2cccs2)CCC3)cc1,inactive: -6.28%,
CN(C)CCCN(C(=O)c1ccco1)c1nc2cc3c(cc2s1)OCO3,inactive: -7.33%,
O=C(CNc1ccc(F)cc1)N/N=C/c1c(O)ccc2ccccc12,inactive: -9.02%,
COCCNc1nc(-c2cc(C)n(CCc3ccc(OC)cc3)c2C)cs1,inactive: -5.72%,
Cc1cc2c(c(/C=C/C(=O)c3ccccc3)c1)OC1(C=C2)Oc2ccccc2C(=O)N1C (configuration not stated),inactive: 0.945%,
COc1ccccc1N1CCN(Cc2cc(Br)c(O)c3ncccc23)CC1,inactive: 0.669%,
C=CCc1ccccc1OCC(=O)N/N=C/c1ccc(OC(C)=O)cc1OC(C)=O,inactive: -12.9%,
O=C(Nc1ccc(OC(F)F)c(Cl)c1)C(c1ccccc1)c1ccccc1,inactive: -1.79%,
C/C(=N\NC(=O)CCCNc1ccc(C)cc1)c1ccccn1,inactive: -2.4%,
OCCN1CCN(C2CCC(c3ccc(F)cc3)c3ccc(F)cc32)CC1 (configuration not stated),inactive: 1.87%,
NC(=O)c1cc([N+](=O)[O-])ccc1NCc1ccc(N)cc1,inactive: -11.5%,
CC(=O)Oc1ccc(C23c4ccccc4C2(OC(C)=O)c2cc(OC(C)=O)ccc23)cc1 (configuration not stated),inactive: -2.35%,
Cc1sc2nc(C3CC3)nc(N3CCN(C(=O)c4ccc(F)cc4)CC3)c2c1C,inactive: 3.95%,
NC(=S)n1[nH]c(-c2ccc([N+](=O)[O-])cc2)c(N=Nc2cccc(Cl)c2)c1=O,inactive: -15.3%,
CC(C)C1C(=O)N(Cc2cn(CCC3OCCO3)nn2)CCS(=O)(=O)N1Cc1ccc(-c2ccc(Cl)cc2)cc1 (configuration not stated),inactive: -3.28%,
CCCCCc1ccc(OCCC[n+]2ccccc2)c(CCCCC)c1,inactive: 3.83%,
Cn1nnnc1Sc1ncnc2scc(Br)c12,inactive: 2.76%,
Cc1cc(Nc2cccc([N+](=O)[O-])c2)n2c(nc3ccccc32)c1C#N,inactive: -0.0683%,
Cc1nc2ccccc2n1-c1nc(-c2ccco2)cc(C(F)(F)F)n1,inactive: -1.97%,

SMILES,"activity change, negative = inhibition",Potency
c1ccc2c(c1)c1c(c3ccccc32)CN2CCCC2C1 (configuration not stated),inactive: -8.97%,
Cc1cccc(OCC(=O)NCC(=O)N/N=C/c2cc(Br)cc(Br)c2O)c1,inactive: -17.3%,
COc1ccccc1C(=O)NNC(=O)c1nn(Cc2ccccc2)c(=O)c2ccccc12,inactive: -14.4%,
CCOc1cc(CNCCO)cc(Br)c1OCc1ccccc1,inactive: 2.7%,
COc1ccc(CC(N)c2csc(NC(=O)CCc3ccccc3)n2)cc1 (configuration not stated),inactive: 1.99%,
O=C(c1cnc(N2CCN(c3ccccn3)CC2)c2ccccc12)N1CCN(c2cccc(Cl)c2)CC1,inactive: 0.857%,
Cn1nnnc1Sc1ncnc2scc(-c3ccsc3)c12,inactive: -8.77%,
OC[C@@H]1[C@@H](c2ccc(Cl)cc2)C(c2cccc(Cl)c2)=NN1c1ccccc1,inactive: 0.588%,
CCCCN(C(=O)c1cccc2c(=O)c(C)c(-c3ccccc3)oc12)c1ccccc1,inactive: -7.85%,
COc1ccccc1-c1cc2nc(-c3ccccc3)cc(N3CCN(C(=O)c4ccoc4)CC3)n2n1,inactive: -4.06%,
Cn1c(SCC(=O)N/N=C/c2ccc([N+](=O)[O-])s2)nnc1-c1ccc(Cl)cc1,inactive: -15.1%,
OCCN1CCN(c2nc(-c3ccccc3O)nc3ccccc23)CC1,inactive: 2.35%,
Cc1ccc(/C=C2/CNC/C(=C/c3ccc(C)cc3)C2=O)cc1,inactive: -13%,
CC(C)CCNC(=O)COc1cccc2c1OC(C)(C)C2,inactive: 1.13%,
CCCC(=O)NC(c1ccc(OC)c(OC)c1)c1cc(Cl)c2cccnc2c1O (configuration not stated),inactive: -15.3%,
CC1CCCCN1S(=O)(=O)c1ccc(C(=O)Nc2nnc(-c3ccncc3)o2)cc1 (configuration not stated),inactive: -7.65%,
CC(=O)Nc1cccc(-c2ccnc3c2CC(C)(C(=O)Nc2ccc(F)c(Cl)c2)O3)c1 (configuration not stated),inactive: 1.32%,
COc1ccc(N(C)S(=O)(=O)c2ccc(Cl)c(C(=O)NCCc3ccc(Cl)cc3)c2)cc1,inactive: -4.37%,
Cc1ccc(S(=O)(=O)Nc2cccc3cccnc23)cc1,inactive: -8.69%,
NS(=O)(=O)c1ccc(CCNc2ccn3nc(-c4cccc(C(F)(F)F)c4)cc3n2)cc1,inactive: -6.02%,
CCC(=O)NNC(=S)NC(=O)c1ccc(C)cc1,inactive: -8.2%,
Cc1cc[n+](C(C)C(=O)c2ccc(-c3ccccc3)cc2)cc1 (configuration not stated),inactive: 2.94%,
COc1ccccc1N1C(=O)N(C(C)=O)C2C1Nc1ccccc1N2C (configuration not stated),inactive: -12.5%,
Cc1nc(SC2CC(=O)N(c3ccccc3)C2=O)n[nH]1 (configuration not stated),inactive: -4.95%,
O=C(Nc1ccc(NC(=O)c2ccco2)cc1)c1ccc2c(c1)OCCO2,inactive: -18.4%,
CCc1c2c(nc3ccc(OC(=O)N4CCC(N5CCCCC5)CC4)cc13)-c1cc3c(c(=O)n1C2)COC(=O)[C@]3(O)CC,inactive: -0.243%,

# Some of the entries above, set out differently.
SMILES	activity change, negative = inhibition	Potency
CCC(=O)NNC(=S)NC(=O)c1ccc(C)cc1	inactive: -8.2%	
Cc1cc[n+](C(C)C(=O)c2ccc(-c3ccccc3)cc2)cc1 (configuration not stated)	inactive: 2.94%	
COc1ccccc1N1C(=O)N(C(C)=O)C2C1Nc1ccccc1N2C (configuration not stated)	inactive: -12.5%	
Cc1nc(SC2CC(=O)N(c3ccccc3)C2=O)n[nH]1 (configuration not stated)	inactive: -4.95%	
O=C(Nc1ccc(NC(=O)c2ccco2)cc1)c1ccc2c(c1)OCCO2	inactive: -18.4%	
CCc1c2c(nc3ccc(OC(=O)N4CCC(N5CCCCC5)CC4)cc13)-c1cc3c(c(=O)n1C2)COC(=O)[C@]3(O)CC	inactive: -0.243%	

# Continued:

SMILES,"activity change, negative = inhibition",Potency
CCn1c(C)nc2cc(C(=O)N/N=C(\C)c3ccc(OC)cc3O)ccc21,inactive: -15.4%,
C(=N\NC(=Nc1ccccc1)c1ccccn1)/c1ccccn1,inactive: -7.15%,
COc1cccc(/C=N/NC(=O)c2ccc(-c3ccccc3)cc2)c1O,inactive: 1.65%,
O=C(N/N=C(\c1ccccc1)c1ccccn1)c1ccccc1Cl,inactive: -10.3%,
CCc1ccc(C(O)c2ncc(-c3cccc(C(F)(F)F)c3)[nH]2)cc1 (configuration not stated),inactive: -4.68%,
O=[N+]([O-])c1ccc(O)c(/C=N\N=C2c3ccccc3-c3ccccc32)c1,inactive: -3.8%,
CCCOc1ccc(C(=O)C(CN2CCOCC2)c2ccccc2)cc1 (configuration not stated),inactive: 0.919%,
CCn1c2ccccc2c2cc(NC(=O)COC(=O)C3CCC(=O)N3)ccc21 (configuration not stated),inactive: -8.44%,
COc1ccccc1NC(=O)Nc1nc(CC(=O)N2CCN(c3ccccc3)CC2)cs1,inactive: -16.8%,
CCCCC/C=C/C1=CC(=O)C[C@H](c2ccc(OC)c(OC)c2)C1,inactive: -0.984%,
Cc1ccc(Sc2nnc(Cc3ccccc3)c3ccccc23)cc1,inactive: -5.16%,
CCOC(=O)c1c2ccc(OCC(=O)N/N=C/c3ccc(C)cc3)cc2n2ccccc12,inactive: 0.619%,
CCCC(NCC(O)COc1ccc(-c2ccccc2)cc1)c1ccccc1 (configuration not stated),inactive: -3.86%,
Cc1cccc2[nH]c3c(N4CC=C(c5ccc(F)cc5)CC4)ncnc3c12,inactive: -7.26%,
Oc1cccc(C(O)CNCc2ccc(-c3ccccc3)cc2)c1 (configuration not stated),inactive: -4.94%,
CCc1ccccc1OCC(=O)Nc1nc(-c2cccnc2)cs1,inactive: -8.34%,
COc1ccc(Cl)cc1C(Nc1cccnc1)c1ccc2cccnc2c1O (configuration not stated),inactive: -1.9%,
CCN(CC)c1c(C)nc2ccc(C(=O)Nc3cc(-c4ccccc4)ccc3OC)cn12,inactive: -8.24%,
COCCCn1c(N)c(-c2nc3ccccc3n2C)c2nc3ccccc3nc21,inactive: 0.41%,
Cc1cccc2sc(N(CCCN(C)C)C(=O)c3ccco3)nc12,inactive: -1.73%,
Nc1c(C(=O)NCc2ccc3c(c2)OCO3)c2nc3ccccc3nc2n1CCCN1CCOCC1,inactive: -0.895%,
COc1ccc(C(=O)C=CNNC(=O)c2ccc(Cl)cc2)cc1,inactive: -8.14%,
OC[C@@H]1CN(Cc2ccc(-c3ccccc3)cc2)C[C@H](n2cnc3c(Nc4ccccc4)ncnc32)O1,inactive: 1.15%,
Cc1cc(C)c(C)c(OC(=O)c2sc(Cl)nc2C)c1,inactive: -1.32%,
